This is one part of the list. Entries with a potency or affinity are not part of this list. Where no call is shown, the source marks the result inconclusive.
Assay: PubChem AID 2003
Settings: H4 cells, SNCA 5'UTR luciferase reporter, luminescence; at 12 µM (top of the series) unless noted

Compound | activation
O=C(/C=C/c1ccccc1Cl)NCCc1ccccc1 | 28.8%
Cc1ccc(N=Nc2c(C)[nH]n(C(N)=S)c2=O)cc1C | 196%
Clc1ccc(/C=N/Nc2ncnc3ccccc23)cc1Cl | 96.4%
O=C(NC1=NCCS1)c1ccc(Cl)cc1 | 64.1%
Nc1ccc(Oc2cc(N)cc(Oc3ccccc3)c2)cc1 | 72.1%
CS(=O)(=O)c1nc(S(=O)(=O)c2ccc(Cl)cc2)c(N2CCC3(CC2)OCCO3)s1 | 39.1%
CN(C)/N=C/C=C1\CCC/C(=C/c2cccs2)C1=O | 60.9%
Cc1cc(N)n2ncc(-c3ccccc3)c2n1 | 87%
COCCn1c(C)cc(C(=O)COC(=O)c2ccc3ncsc3c2)c1C | 65%
O=C(CSc1nnc(-c2ccc(Cl)cc2)o1)N1CCOCC1 | 73%
O=c1c2c(nc3cc(-c4ccccc4Cl)[nH]n13)CCS2 | 44.9%
CCN1CCN(Cc2ccccc2NC(=O)Nc2ccc(C)cc2)CC1 | 28.1%
Cc1ccc(-c2onc3ccc(C4OCCO4)cc23)cc1 | 50.5%
CC1(C)CC(=O)/C(=N/Nc2ccc(Cl)cc2)CO1 | 107%
c1ccc(CN=C2NN=C(c3ccccc3)CS2)cc1 | 51.3%
COc1cccc(NC(=O)NCCC2=CCCCC2)c1 | 85.7%
Oc1ccc(-c2csc(-c3ccccc3)n2)cc1O | 45.7%
O=S(=O)(c1ccc(Cl)s1)N1CCCc2cccc(O)c21 | 45.7%
O=C(Nc1ccc2sc3ccccc3c(=O)c2c1)c1ccccc1Cl | 50.7%
O=C(c1ccccc1-c1nc(-c2ccc(Cl)cc2)no1)N1CCCC1 | 69%
CC1CCN(C(=S)NCCc2ccccc2)CC1 | 26.2%
Cc1cc(C(=O)CSc2nc3ccccc3o2)c(C)n1CC1CCCO1 (stereo not given) | -8.2%

Compound | activation
ON=C1c2cc(OCCN3CCCCC3)ccc2-c2ccc(OCCN3CCCCC3)cc21 | -98.3%
Cc1ccc(C(=O)Nc2nc3ccccc3n2CCN2CCCC2)cc1 | 37.5%
CC1Oc2cc3oc4c(O)c5c(cc4c(=O)c3c(O)c2C1(C)C)C=CC(C)(C)O5 (stereo not given) | 146%
N#Cc1c(NC(=O)C2CCCO2)sc2c1CCCCC2 (stereo not given) | 45.5%
Nc1c(C(=O)Nc2ccc3c(c2)OCCO3)nnn1Cc1ccc(Br)cc1 | 46.7%
O=C(COC(=O)CC1CCCC1)Nc1cc2c(cc1Cl)C(=O)c1ccccc1C2=O | 24.3%
O=C(NCc1ccccc1)c1cccc(COc2ccc(Cl)cc2)c1 | 26.7%
COc1ccc(Oc2nccc(-c3ccccc3)c2C#N)cc1 | 53.4%
Cc1cc(C(=O)CSc2n[nH]c(N)n2)c(C)n1-c1ccccc1 | 87.3% [at 6 µM]
Cc1ccc(-n2c(C)c(C)c3c(NCCCO)ncnc32)cc1 | 53%
Cc1oc(=O)c(NC(=O)c2cccc(Cl)c2)cc1C(=O)c1ccccc1 | 1.7%
CNC(=O)COC(=O)c1ccc(-c2nc3ccccc3s2)s1 | 86.1%
N#CC1=C2SC=C(c3ccc(Br)cc3)N2CCCC1=O | 144%
CC(=O)c1c(C)[nH]c(C(=O)Nc2nccs2)c1C | 59.4%
Cc1ccc(-n2nc(C)c(NC(=O)CCl)c2C)cc1C | 27.3%
O=C(NCC1CCCCC1)c1ccc(F)cc1Cl | 22.2%
O=C(Nc1nc(-c2ccc3c(c2)OCCO3)cs1)C1CCCC1 | 38.3%
Cc1ccc(Sc2c(CO)c(-c3ccccc3)nn2C)cc1 | -74.3%
Nc1nc(-c2ccccn2)nc(N)c1Cc1ccccc1F | 98.6%
CCOC(=O)c1c(-c2ccccc2)cn2c(C)cc(C)nc12 | 98.1%
CCN1C(=O)/C(=C/N2CCc3ccccc32)SC1=S | 41.1%
Cc1ccc(NC(=O)ON=C2CCCC2)cc1 | 54.6%

Compound | activation
Cc1ccnc(N(C(=O)Nc2ccccc2)C2=NCC(C)(C)S2)c1 | 73.8%
Cc1cccnc1NC(=S)NCCc1ccccc1 | 43.4%
COc1ccc(Nc2cnn(-c3nc4ccccc4s3)c(=O)c2Cl)cc1 | 76.1%
Cc1ccc2nc(-c3ccc(NC(=O)CN4CCN(c5ccccn5)CC4)cc3)sc2c1 | 63.9%
COc1cccc(-c2cn3nc(C)c(C)nc3n2)c1 | 7.8%
Cn1c(N)c(C(=O)Nc2ccc3ccccc3c2)sc1=S | 85.8%
O=C(Nc1nc2ccsc2c(=O)s1)c1ccc(F)cc1 | 74%
O=C(NC1CCCC1)c1cc(-c2cccs2)on1 | 127%
O=c1nc2c(-c3cccc(Br)c3)n[nH]n2c2ccccc12 | 66.5%
Cc1ccc2cc(CCNC(=O)c3cccs3)c(=O)[nH]c2c1C | 31.1%
Cc1ccc(/C(N)=N/OC(=O)CSc2ccccc2)cc1 | 69%
CCN(CC)c1ccc(NC(=O)c2cncc(Br)c2)cc1 | 44.9%
Cn1c(C(=O)Nc2ccc3c(c2)OCO3)cc2sccc21 | 67.7%
COc1ccc(-c2cn(Cc3ccc(C(=O)c4ccccc4)cc3)nn2)cc1 | 34.3%
O=C(NCCC1=CCCCC1)NC12CC3CC(CC(C3)C1)C2 | 88.2%
COCCn1c(C)cc(C(=O)CSc2nc3ccccc3c(=O)[nH]2)c1C | 38.4%
CC(C)(C)NC(=O)COC(=O)c1ccccc1Nc1ccc(SC(F)F)cc1 | 41.7%
CCn1c(C(=O)OC)cc2c1ccn2-c1ccc(F)cc1 | 46.4%
N/C(=N\OC(=O)c1cccc(F)c1)c1ccccc1 | 61.9%
O=C(Nc1ncc(Cc2ccccc2)s1)C1COc2ccccc2O1 (stereo not given) | 101%
Cc1ccc(NC(=O)c2ccc(OC(=O)CCN3C(=O)c4ccccc4C3=O)cc2)cc1 | 96.6%

At a glance, some entries already given.
Compound | activation
Cc1oc(=O)c(NC(=O)c2cccc(Cl)c2)cc1C(=O)c1ccccc1 | 1.7%
CNC(=O)COC(=O)c1ccc(-c2nc3ccccc3s2)s1 | 86.1%
N#CC1=C2SC=C(c3ccc(Br)cc3)N2CCCC1=O | 144%
CC(=O)c1c(C)[nH]c(C(=O)Nc2nccs2)c1C | 59.4%
Cc1ccc(-n2nc(C)c(NC(=O)CCl)c2C)cc1C | 27.3%
O=C(NCC1CCCCC1)c1ccc(F)cc1Cl | 22.2%

From PubChem BioAssay AID2003 (Broad Institute, 2009)
